The supplement of paper PMC7646827
Where a name gives a salt, the structure may show the parent alone. Single values are uncertain, as repeats are few or missing.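 All cells are established human bladder cancer lines, one of them grown from a patient-derived xenograft. Viability was read by a luminescent ATP assay as percent inhibition versus vehicle over a seven-point dilution series; the paper calls scores above 59 very active, 30–59 active, 21–29 semi-active, 9–20 low active and below 9 inactive.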

Legend:
Test in all cases: drug sensitivity score DSS3 (score 0-100); higher = more sensitive; extreme values may be limits of the assay
Conditions in all cases: culture: 3D, ultra-low attachment; treatment time: 5 days
[1] = system: SCaBER
[2] = system: UM-UC-1
[3] = system: T-24
[4] = system: UM-UC-15
[5] = system: UM-UC-9
[6] = system: UM-UC-18
[7] = system: J82
[8] = system: 5637
[9] = system: TCCSUP
[10] = system: UM-UC-17
[11] = system: UM-UC-12
[12] = system: UM-UC-3
[13] = system: BC8149
[14] = system: UM-UC-5
[15] = system: UM-UC-6
[16] = system: SW780
[17] = system: UM-UC-14

Structure (SMILES)	drug sensitivity score DSS3 [1]	drug sensitivity score DSS3 [2]	drug sensitivity score DSS3 [3]	drug sensitivity score DSS3 [4]	drug sensitivity score DSS3 [5]	drug sensitivity score DSS3 [6]	drug sensitivity score DSS3 [7]	drug sensitivity score DSS3 [8]	drug sensitivity score DSS3 [9]	drug sensitivity score DSS3 [10]	drug sensitivity score DSS3 [11]	drug sensitivity score DSS3 [12]	drug sensitivity score DSS3 [13]	drug sensitivity score DSS3 [14]	drug sensitivity score DSS3 [15]	drug sensitivity score DSS3 [16]	drug sensitivity score DSS3 [17]
CNC(=O)c1cc(Oc2ccc3nc(N[C@@H]4CCCC[C@H]4O)sc3c2)ccn1 [BLZ945] (max dose 10000 nM)	0	0	0	0.308	0	0	0	0	0	0	0	0	0	0	0	0	0
CC(C)C(=O)Nc1ccc([N+](=O)[O-])c(C(F)(F)F)c1 [Flutamide] (max dose 10000 nM)	0	0	0	0	0	0	0	2.52	2.95	0.275	0.342	0.413	0	0	0	0	0
Cc1c(C(=O)Nc2ccc(N3C[C@@H](C)O[C@@H](C)C3)nc2)cccc1-c1ccc(OC(F)(F)F)cc1 [LDE225 (NVP-LDE225,Erismodegib)] (max dose 10000 nM)	0.101	0	0	0	0	0	0	0	0	0	0	0	0	0	0	0	0
O=C1NC(=O)C(c2ccccc2[N+](=O)[O-])=C1Nc1ccc(O)c(Cl)c1 (max dose 10000 nM)	0	0	0	1.83	0	0	0	0	0	0	0	0	0	0	0	0	0
Cn1cc(C2=C(c3ccc(Cl)cc3Cl)C(=O)NC2=O)c2ccccc21 (max dose 10000 nM)	0	6.53	0	0	0	0	0	10.5	9.8	5.19	2.63	0	20.1	3.79	0	0	0.789
Nc1nc(Cl)nc2c1ncn2[C@@H]1O[C@H](CO)[C@@H](O)[C@@H]1F [Clofarabine] (max dose 10000 nM)	9.75	15.8	1.4	0	12.6	45.9	19.2	32.1	42	26.3	0	10.5	29.9	3.04	12.6	2.54	9.94
CN1C(=O)C(Cc2c[nH]c3ccccc23)NC1=S (stereo not given) [Necrostatin-1] (max dose 10000 nM)	1.08	0	0	0	1.73	0.939	0	5.29	0	0	2.91	0.646	3.63	1.91	0	0.284	0
Cc1[nH]c2ccccc2c1CCNCc1ccc(/C=C/C(=O)NO)cc1 [Panobinostat (LBH589)] (max dose 10000 nM)	26	21.4	39.7	60.3	26.2	40.1	26.2	39.5	63	35.3	36	35.2	38.8	21.1	22.2	8.71	37.4
NC(=O)c1noc([C@H](CCCC2CCCCC2)CC(=O)NO)n1 (max dose 10000 nM)	0	0	2.12	0	0	2.96	0	1.39	0.0852	0	0.365	0.94	1.49	0	0.00428	0	0
CC[C@H](Nc1ncnc2[nH]cnc12)c1nc2cccc(F)c2c(=O)n1-c1ccccc1 [CAL-101 (Idelalisib, GS-1101)] (max dose 10000 nM)	0	0	0	0	0	0	0	0	0	0	0	0	8.1e-05	0	0	0	0
CCc1cncnc1N1CCN(Cc2nc3ccc(C(F)(F)F)cc3[nH]2)CC1 (max dose 10000 nM)	1.32	2.14	3.58	0	0	0	0.513	3.38	6.68	0	2.37	0.9	0	0	0	0	1.64
CN(NC(=O)CC(=O)NN(C)C(=S)c1ccccc1)C(=S)c1ccccc1 [Elesclomol (STA-4783)] (max dose 10000 nM)	0	0	0.000754	0	5.01	2.26	1.22	0.833	1.14	0.578	0	0	1.44	0	0	0	0
Nc1nc(N)c2nc(-c3cccc(O)c3)c(-c3cccc(O)c3)nc2n1 [TG100-115] (max dose 10000 nM)	0	0	0	0	0	0	0	0	0	0	0	0	0	0	0	0	0
CCCCN(Cc1ccc(C(=O)NO)cc1)C(=O)Nc1ccccc1 [Nexturastat A] (max dose 10000 nM)	6.8	0	0	4.51	0	0	0	0.451	1.89	0.00126	0.722	13.1	2.49	0	0.278	0	0.158
CN(C)Cc1ccc(-c2nc3cccc4c3n2CCNC4=O)cc1 (max dose 10000 nM)	0	0.555	0.698	0	0.138	0.214	0	7.04	0.95	0	1.76	0.841	0	0	0.203	1.71	2.59
C=CC(=O)Nc1cccc(Nc2nc(Nc3ccc(NC4CN(CCF)C4)cc3OC)ncc2C(F)(F)F)c1 [CNX-2006] (max dose 10000 nM)	3.65	0.488	8.54	0	0.0511	3.07	0.43	3.23	3.99	0	2.67	3.06	1.2	0	0.279	0	1.58
COc1ccccc1C(=O)Nc1cc2c(cc1N1CCCC1)n(C)c(=O)n2C [PFI-4] (max dose 10000 nM)	0	0	0	0	0	0	0	0	0	0	0	0.0692	0	0	0.212	0	8.3e-07
c1ccc2c(-c3cnn4cc(-c5ccc(N6CCNCC6)cc5)cnc34)ccnc2c1 (max dose 10000 nM)	0	0.103	1.56	0	0.163	0	0	0	0	0	0	0	0	0	0	0	0
C=CC(=O)N1CCC(Oc2cc3c(Nc4ccc(Cl)c(Cl)c4F)ncnc3cc2OC)CC1 [Poziotinib] (max dose 10000 nM)	53.3	2.41	8.67	9.41	24.4	43	1.31	50.5	21.2	0.186	23.8	0	14.1	0	18.8	0	2.11
CNc1nc(-c2ccc3c(N)n[nH]c3c2)cc(N2C[C@@H](C(=O)NC3CCCCC3)CC[C@H]2C)n1 (max dose 10000 nM)	0	2.02	0	0	0	0.0205	0.00925	1.67	1.33	0	0.000153	0	10.2	0.0461	0.98	0	1.82
CCc1cc2c(cc1N1CCC(N3CCOCC3)CC1)C(C)(C)c1[nH]c3cc(C#N)ccc3c1C2=O [alectinib HCL] (max dose 2000 nM)	0	0	0.0199	2.45	0	0	0	0	0	0	0	0	0	0	0.162	0	0
COc1ccc(-c2ccc3c(N4CCOC[C@@H]4C)nc(N4CCOC[C@@H]4C)nc3n2)cc1CO [AZD8055] (max dose 10000 nM)	30.4	30.7	1.91	3.75	13.7	22.9	20.3	28.8	51.1	9.66	24.1	28.1	49.1	25.9	25.3	15.6	14.1
CCCCc1ncc(/C=C(\Cc2cccs2)C(=O)O)n1Cc1ccc(C(=O)O)cc1 [Eprosartan Mesylate] (max dose 10000 nM)	0	0	0.103	0	0	0	0	0	0	0	0	0	0	0	0	0	0
Cc1cn(-c2cc(NC(=O)c3ccc(C)c(Nc4nccc(-c5cccnc5)n4)c3)cc(C(F)(F)F)c2)cn1 [Nilotinib (AMN-107)] (max dose 10000 nM)	0.978	2.17	1.98	0	0.0162	3.38	0.322	3.47	7.53	0	7.13	8.31	9.84	0	0	0	0
Cn1cnc(N)c2ncnc1-2 [3-Methyladenine] (max dose 10000 nM)	0	0	0	0	0	0	0	0	0	0	0	0	0	0	0	0	0

Single records (already shown). Order of values: drug sensitivity score DSS3 [1] | drug sensitivity score DSS3 [2] | drug sensitivity score DSS3 [3] | drug sensitivity score DSS3 [4] | drug sensitivity score DSS3 [5] | drug sensitivity score DSS3 [6] | drug sensitivity score DSS3 [7] | drug sensitivity score DSS3 [8] | drug sensitivity score DSS3 [9] | drug sensitivity score DSS3 [10] | drug sensitivity score DSS3 [11] | drug sensitivity score DSS3 [12] | drug sensitivity score DSS3 [13] | drug sensitivity score DSS3 [14] | drug sensitivity score DSS3 [15] | drug sensitivity score DSS3 [16] | drug sensitivity score DSS3 [17]
`CC(C)C(=O)Nc1ccc([N+](=O)[O-])c(C(F)(F)F)c1` [Flutamide] (max dose 10000 nM) as listed: 0 | 0 | 0 | 0 | 0 | 0 | 0 | 2.52 | 2.95 | 0.275 | 0.342 | 0.413 | 0 | 0 | 0 | 0 | 0
`CCc1cc2c(cc1N1CCC(N3CCOCC3)CC1)C(C)(C)c1[nH]c3cc(C#N)ccc3c1C2=O` [alectinib HCL] (max dose 2000 nM) as listed: 0 | 0 | 0.0199 | 2.45 | 0 | 0 | 0 | 0 | 0 | 0 | 0 | 0 | 0 | 0 | 0.162 | 0 | 0
